Values of other authors in patent publication US6524616B1, “COMPOSITIONS AND METHODS FOR TREATING OR PREVENTING NEURODEGENERATION AND COGNITIVE DECLINE AND DYSFUNCTION ASSOCIATED WITH ALZHEIMER'S DISEASE, AGING, OTHER DEMENTIA RELATED DISORDERS AND ESTROGEN DEFICIENCY RELATED CONDITIONS” (priority 1999, dated 2003).
Read-outs that look alike come from different tables or passages of the source. For at least one compound, name, drawing or mass did not settle the structure.

Experiments:
[1] = system: patients with Alzheimer's disease; conditions: cited from earlier work; for Effects on Cognitive Function: cognitive decline in Alzheimer's disease
BuChE (blood) = conditions: read-out: IC50 BuChE, in vitro; cited from earlier work

## CNC(=O)Oc1ccc2c(c1)[C@]1(C)CCN(C)[C@@H]1N2C [Physostigmine]
[1]
  Effects on Cognitive Function: Unchanged to Significant Improvement
[1]; listed as physostigmine
  Effects on Cognitive Function: mild beneficial effects
[1]; in vivo
  improving symptoms of Alzheimer's disease: mildly effective
BuChE (blood)
  IC50: 1260 nM
